PubChem BioAssay AID2685 (National Center for Advancing Translational Sciences (NCATS), 2010)
The campaign covered roughly 320,000 compounds. About 2,100 (0.66%) were called active. The shares of active, inactive and inconclusive entries below differ from those in the screen. Calls follow the shape of the dose curve; as a rule, active = well fitted inhibition curve with a large enough effect in the signal ratio, with a control signal flat (not every such curve was filed as active); inconclusive = small, poorly fitted or top-dose-only effect, or effect the other way, or a change in a side signal; inactive = flat fitted curve, though single readings scatter; the % refers to the signal ratio. A potency beside an inconclusive call is a rough fit, not a confirmed value.

Experiment: qHTS Assay for Lipid Storage Modulators in Drosophila S3 Cells
Details: BODIPY lipid droplet fluorescence, 18-24 h, cells fed with added oleic acid; lipid storage change, negative = inhibition: at 46.1 µM (top of the series) unless noted
Procedure, shortened: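 Laser-scanning cytometry quantifies lipid droplet accumulation (500–530 nm total intensity; droplet/cell object ratio) in oleic acid-fed (400 uM added) Drosophila S3 cells treated with a concentration series. 20 uM Triacsin C defined 100% inhibition.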
% is scaled to controls: 0 for no effect and ±100 for the full control effect; potency is read from the fitted curve at half-maximal effect.

| SMILES | lipid storage change, negative = inhibition | Potency |
| --- | --- | --- |
| Cc1cccn2c(/C=N/OCc3cccc(F)c3)c(-c3ccc(Cl)cc3)nc12 | inconclusive: -35.7% |  |
| CCCCCCCCCCOC(=O)C[N+](C)(C)C/C=C(/C)Cl |  | active: 2.06 µM |
| O=C(COC(=O)c1ccccn1)c1ccc(Br)cc1 | inconclusive: -4.08% |  |
| Cn1c(=O)n(CCc2ccccc2)c(=O)c2c1nc1n2CCCN1c1ccccc1 | inconclusive: 3.09% |  |
| O=C(NCc1cccc(F)c1)c1ccc(N2C(=O)Cn3c(cc4sccc43)C2=O)cc1 | inconclusive: -28.5% |  |
| CC(=O)c1ccc(NC(=O)c2ccc(C)c(Br)c2)cc1 |  | inconclusive: 18.4 µM [falling, partial curve, poor fit] |
| c1ccc(-c2noc(CCC3CCCC3)n2)cc1 | inconclusive: -39.9% [at 0.369 µM] |  |
| O=C(Nc1ccccc1C(F)(F)F)c1cnccn1 | inconclusive: -37.2% |  |
| Cc1nc(-c2cccc(Cl)c2)n[nH]1 | inconclusive: 16.8% |  |
| CSc1cccc(NC(=O)NCc2cccc(CNC(=O)Nc3cccc(SC)c3)c2)c1 |  | inconclusive: 32.6 µM [falling, single point] |
| CC1(C)Cc2cccc(OCC(=O)OCc3nnc(-c4ccc([N+](=O)[O-])cc4)o3)c2O1 | inconclusive: 56.6% |  |
| Cc1cccc(NC(=O)Cn2cccc2)c1 | inconclusive: 33% |  |
| O=C(/C=C/c1ccccc1)N1CCC(Cc2ccccc2)CC1 |  | inconclusive: 32.6 µM [falling, single point] |
| CC1CC(=S)Nc2ccccc2N1Cc1ccccc1 (stereo not given) |  | inconclusive: 0.206 µM [activator, full curve, poor fit] |
| Cc1cc(C)nc(SCc2nc3ncccn3c2Br)n1 |  | inconclusive: 1.3 µM [activator, full curve] |
| OCC[C@H]1C[C@@H](O)[C@H](O)[C@@]2(Cc3ccccc3O2)O1 |  | inconclusive: 6.51 µM [activator, partial curve, poor fit] |
| COc1ccc(CCNC(=O)C(=O)NCCCN2CCOCC2)cc1 |  | inconclusive: 29.1 µM [activator, partial curve, poor fit] |
| COc1cc(CNCCO)cc(Cl)c1OCc1ccccc1Cl | inconclusive: 2.27% |  |
| CCOc1cccc(OCCCOc2cccc3cccnc23)c1 |  | inconclusive: 10.3 µM [activator, partial curve, poor fit] |
| CN1CCC(C2(O)c3ccccc3CCc3ccccc32)CC1 | inconclusive: 1.24% |  |
| Cc1ccc(CN2CC(C(=O)N3CCN(S(=O)(=O)c4c(F)cccc4F)CC3)CC2=O)cc1 (stereo not given) | inconclusive |  |
| O=S(=O)(Nc1ccc(O)c(Sc2nc3ccccc3s2)c1)c1cccc2ccccc12 | inconclusive: -24.8% |  |
| CCOC(=O)C1CCCN(C(=O)CSc2ccc(Br)cc2)C1 (stereo not given) | inconclusive: -31.3% |  |
| CCc1nnc(NS(=O)(=O)c2ccc(NS(=O)(=O)c3ccc(NC(C)=O)cc3)cc2)s1 | inconclusive: -0.247% |  |
| Cc1ccccc1OCCC(=O)OCC(=O)NC1CC1 | inconclusive: 6.78% |  |

| SMILES | lipid storage change, negative = inhibition | Potency |
| --- | --- | --- |
| COc1ccc(C(=O)NC2=NCCS2)c(OC)c1 | inconclusive: 8.94% |  |
| O=[N+]([O-])c1ccc(C2=Nn3c(Cn4nnc5ccccc54)nnc3SC2)cc1 | inconclusive: 21% |  |
| C=CCn1c(SCC(=O)Nc2ccccc2CC)nnc1-c1ccncc1 |  | inconclusive: 4.11 µM [rising, single point] |
| CC1CN(C(=O)c2cccc(C(=O)N3CC(C)OC(C)C3)c2)CC(C)O1 (stereo not given) |  | active: 18.4 µM |
| COc1ccc(-c2nc(CS(=O)(=O)CC(=O)Nc3ccc(Cl)cc3)c(C)o2)cc1 | inconclusive: 50.9% |  |
| O=C(CCC(=O)c1cccs1)NCc1cccnc1 |  | inconclusive: 0.651 µM [falling, single point] |
| O=c1cc(O)n(-c2ccc(Cl)cc2)c(=S)[nH]1 |  | inconclusive: 0.058 µM [falling, full curve, poor fit] |
| C/C(=N/NS(=O)(=O)c1ccccc1)c1ccc(NC(=O)C2CC2)cc1 | inconclusive: 7.25% |  |
| Cc1noc(C)c1C(=O)OCC(=O)Nc1cccc(S(N)(=O)=O)c1 | inconclusive: 136% |  |
| C/C(=N\NC(=O)c1c(C)nc2ccccn12)c1ccco1 | inactive: -0.446% |  |
| Cc1ccc(S(=O)(=O)N2[C@@H](c3ccccc3)C(C(=O)O)=CC[C@H]2c2ccc(Cl)c(Cl)c2)cc1 | inconclusive: 6.59% |  |
| Cc1cccc(OCCCCCN2CCOCC2)c1 |  | inconclusive: 0.58 µM [falling, single point] |
| Cc1ccc(NC(=O)CCC(=O)c2cc(C)sc2C)nc1 | inconclusive |  |
| O=C(O)c1cc(N/N=C/c2ccc(-c3ccc(F)cc3)o2)ccc1Cl |  | inconclusive: 0.206 µM [falling, full curve, poor fit] |
| Cc1nn(-c2ccccc2)c(N2CCCC2)c1/C=N/NC(=O)c1cc2ccccc2cc1O | inconclusive: 6.67% |  |
| COc1ccccc1CNC(=O)N[C@@H](Cc1ccccc1)C(=O)O | inconclusive: 3.99% |  |
| Cn1cc(CCC(=O)N2CCCC(C(=O)c3cccc4ccccc34)C2)cn1 (stereo not given) |  | inconclusive: 29.1 µM [falling, single point] |
| CCCNC(=O)NC(=O)CSc1nnc(-c2ccncc2)n1CC |  | inconclusive: 29.1 µM [activator, single point] |
| CCN1CC(CN(C)Cc2nc(Cc3ccccc3)no2)CC1=O (stereo not given) | inconclusive: -9.89% |  |
| O=C(Nc1ccccc1)c1nnsc1S(=O)c1ccc(Cl)cc1 (stereo not given) |  | inconclusive: 23.1 µM [cytotoxic, partial curve] |
| Cc1ccc(N2CCN(C(=O)c3ccccc3F)CC2)c(C)c1 | inconclusive: 44.7% |  |
| Clc1ccc2ncc(-c3nnnn3-c3ccccc3)c(-c3ccccc3)c2c1 | inconclusive: -37.4% |  |
| Cc1ccc(NC(=O)Cn2c(O)c(N=NC(N)=O)c3ccccc32)cc1 | inactive: -14.8% |  |
| O=c1cc(-c2ccc(O)cc2)oc2c1ccc1ccccc12 |  | inconclusive: 6.51 µM [falling, full curve] |
| C/C(=N/NS(=O)(=O)c1ccc(Cl)cc1)c1cccc(NC(=O)c2ccc(Cl)cc2Cl)c1 | inconclusive: 17.2% |  |

Sorted by molar mass (ascending): three of the compounds above

| SMILES | lipid storage change, negative = inhibition | Potency |
| --- | --- | --- |
| OCC[C@H]1C[C@@H](O)[C@H](O)[C@@]2(Cc3ccccc3O2)O1 |  | inconclusive: 6.51 µM [activator, partial curve, poor fit] |
| Cc1ccc(NC(=O)CCC(=O)c2cc(C)sc2C)nc1 | inconclusive |  |
| Cn1cc(CCC(=O)N2CCCC(C(=O)c3cccc4ccccc34)C2)cn1 (stereo not given) |  | inconclusive: 29.1 µM [falling, single point] |
